The supplement of paper PMC10849652
This is one part of the list.

Protein sequences, listed by entry. Tags and fused reporters are not part of them. Lines headed by an entry give the natural chain unless they say otherwise; changes in a name come on top.
UniProt Q9UK97: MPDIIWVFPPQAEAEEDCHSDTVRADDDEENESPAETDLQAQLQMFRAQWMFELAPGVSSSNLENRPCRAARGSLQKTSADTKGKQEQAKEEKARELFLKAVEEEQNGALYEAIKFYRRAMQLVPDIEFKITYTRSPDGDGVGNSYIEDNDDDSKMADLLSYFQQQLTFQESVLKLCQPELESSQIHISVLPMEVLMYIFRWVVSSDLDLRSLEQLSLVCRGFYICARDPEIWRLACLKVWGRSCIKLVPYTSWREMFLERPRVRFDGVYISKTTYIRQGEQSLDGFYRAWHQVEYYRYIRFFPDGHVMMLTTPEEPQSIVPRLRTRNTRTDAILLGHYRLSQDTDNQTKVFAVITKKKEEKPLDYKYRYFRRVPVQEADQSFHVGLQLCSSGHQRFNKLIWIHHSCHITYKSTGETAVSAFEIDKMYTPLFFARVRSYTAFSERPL
UniProt Q0JRZ9: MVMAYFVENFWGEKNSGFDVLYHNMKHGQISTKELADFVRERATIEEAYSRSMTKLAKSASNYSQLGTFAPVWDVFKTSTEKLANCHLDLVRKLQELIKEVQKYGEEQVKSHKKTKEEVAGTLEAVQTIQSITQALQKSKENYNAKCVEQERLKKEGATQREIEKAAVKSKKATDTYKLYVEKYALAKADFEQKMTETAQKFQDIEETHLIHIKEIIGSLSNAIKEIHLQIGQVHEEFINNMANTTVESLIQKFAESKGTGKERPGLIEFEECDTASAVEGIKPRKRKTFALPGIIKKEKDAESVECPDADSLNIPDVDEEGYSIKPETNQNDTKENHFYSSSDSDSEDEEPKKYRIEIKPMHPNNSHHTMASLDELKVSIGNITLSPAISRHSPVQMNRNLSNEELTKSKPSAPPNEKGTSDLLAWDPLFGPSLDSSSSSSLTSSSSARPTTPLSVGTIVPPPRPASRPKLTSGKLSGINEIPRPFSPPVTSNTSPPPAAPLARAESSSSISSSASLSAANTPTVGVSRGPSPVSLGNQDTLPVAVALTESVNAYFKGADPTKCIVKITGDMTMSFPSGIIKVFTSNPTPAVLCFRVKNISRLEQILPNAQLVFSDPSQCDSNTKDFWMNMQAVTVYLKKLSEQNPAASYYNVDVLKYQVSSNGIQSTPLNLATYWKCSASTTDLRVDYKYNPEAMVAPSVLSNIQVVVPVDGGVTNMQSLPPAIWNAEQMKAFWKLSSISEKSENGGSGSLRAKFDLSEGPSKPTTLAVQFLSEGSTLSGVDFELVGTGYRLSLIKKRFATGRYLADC
UniProt Q8TF40: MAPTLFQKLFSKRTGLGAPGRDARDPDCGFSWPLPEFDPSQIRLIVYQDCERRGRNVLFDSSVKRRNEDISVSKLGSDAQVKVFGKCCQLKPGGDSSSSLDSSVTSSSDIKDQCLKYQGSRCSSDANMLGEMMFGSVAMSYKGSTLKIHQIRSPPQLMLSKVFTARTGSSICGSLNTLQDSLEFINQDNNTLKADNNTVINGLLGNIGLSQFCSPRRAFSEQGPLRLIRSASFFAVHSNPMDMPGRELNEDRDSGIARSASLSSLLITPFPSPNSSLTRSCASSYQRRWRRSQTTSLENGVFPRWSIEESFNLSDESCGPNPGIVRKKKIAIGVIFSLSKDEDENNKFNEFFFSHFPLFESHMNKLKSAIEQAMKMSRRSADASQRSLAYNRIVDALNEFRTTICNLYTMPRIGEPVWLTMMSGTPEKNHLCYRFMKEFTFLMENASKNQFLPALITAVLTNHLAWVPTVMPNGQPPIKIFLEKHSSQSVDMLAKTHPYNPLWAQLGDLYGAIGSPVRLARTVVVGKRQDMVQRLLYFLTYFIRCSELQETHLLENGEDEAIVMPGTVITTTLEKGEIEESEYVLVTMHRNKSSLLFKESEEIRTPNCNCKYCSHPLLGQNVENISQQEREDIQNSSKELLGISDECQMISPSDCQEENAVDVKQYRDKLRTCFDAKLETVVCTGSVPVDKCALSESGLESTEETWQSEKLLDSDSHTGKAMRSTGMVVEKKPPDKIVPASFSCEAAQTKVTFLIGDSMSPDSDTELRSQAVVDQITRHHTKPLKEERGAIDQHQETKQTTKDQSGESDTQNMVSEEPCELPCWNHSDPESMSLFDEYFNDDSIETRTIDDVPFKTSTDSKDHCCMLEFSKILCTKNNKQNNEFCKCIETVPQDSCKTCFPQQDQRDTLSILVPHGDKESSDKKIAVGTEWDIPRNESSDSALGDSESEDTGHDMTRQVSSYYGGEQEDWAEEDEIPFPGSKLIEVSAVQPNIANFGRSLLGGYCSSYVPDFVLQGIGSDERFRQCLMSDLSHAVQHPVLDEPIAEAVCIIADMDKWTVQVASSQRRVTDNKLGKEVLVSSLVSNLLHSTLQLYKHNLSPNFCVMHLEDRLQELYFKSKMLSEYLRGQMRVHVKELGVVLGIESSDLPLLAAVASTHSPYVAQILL
UniProt Q6PIJ6: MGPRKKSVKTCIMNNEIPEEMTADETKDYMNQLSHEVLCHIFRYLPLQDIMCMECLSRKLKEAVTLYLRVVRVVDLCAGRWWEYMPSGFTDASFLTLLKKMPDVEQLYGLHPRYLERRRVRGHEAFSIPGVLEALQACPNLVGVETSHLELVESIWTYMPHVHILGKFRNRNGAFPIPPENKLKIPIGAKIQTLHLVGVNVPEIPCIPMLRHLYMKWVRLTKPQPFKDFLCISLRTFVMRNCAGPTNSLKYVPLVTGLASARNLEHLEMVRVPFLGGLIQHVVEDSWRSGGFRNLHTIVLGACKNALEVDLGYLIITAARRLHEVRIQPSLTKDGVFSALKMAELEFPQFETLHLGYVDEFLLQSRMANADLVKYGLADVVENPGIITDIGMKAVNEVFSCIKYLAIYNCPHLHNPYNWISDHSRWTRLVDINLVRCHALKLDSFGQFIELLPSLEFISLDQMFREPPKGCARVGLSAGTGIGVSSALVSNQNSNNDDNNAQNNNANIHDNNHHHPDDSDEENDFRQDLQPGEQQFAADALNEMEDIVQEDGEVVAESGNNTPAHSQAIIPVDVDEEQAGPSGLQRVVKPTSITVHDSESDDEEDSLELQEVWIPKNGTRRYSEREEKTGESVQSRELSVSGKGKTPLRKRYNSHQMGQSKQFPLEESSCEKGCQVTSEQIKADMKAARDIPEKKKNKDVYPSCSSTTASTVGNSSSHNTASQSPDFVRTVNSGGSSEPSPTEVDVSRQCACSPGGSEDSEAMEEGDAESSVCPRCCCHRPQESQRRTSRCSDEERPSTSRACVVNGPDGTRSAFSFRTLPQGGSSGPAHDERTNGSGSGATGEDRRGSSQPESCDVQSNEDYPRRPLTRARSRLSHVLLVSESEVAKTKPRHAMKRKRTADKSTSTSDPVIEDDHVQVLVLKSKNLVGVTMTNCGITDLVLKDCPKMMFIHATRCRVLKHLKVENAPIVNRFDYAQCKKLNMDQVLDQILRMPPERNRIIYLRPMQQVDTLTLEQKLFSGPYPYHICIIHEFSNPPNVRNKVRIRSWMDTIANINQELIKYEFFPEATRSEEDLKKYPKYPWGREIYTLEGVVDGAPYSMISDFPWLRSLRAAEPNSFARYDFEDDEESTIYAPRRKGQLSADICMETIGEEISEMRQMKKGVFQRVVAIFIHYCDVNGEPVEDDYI
UniProt Q96C11: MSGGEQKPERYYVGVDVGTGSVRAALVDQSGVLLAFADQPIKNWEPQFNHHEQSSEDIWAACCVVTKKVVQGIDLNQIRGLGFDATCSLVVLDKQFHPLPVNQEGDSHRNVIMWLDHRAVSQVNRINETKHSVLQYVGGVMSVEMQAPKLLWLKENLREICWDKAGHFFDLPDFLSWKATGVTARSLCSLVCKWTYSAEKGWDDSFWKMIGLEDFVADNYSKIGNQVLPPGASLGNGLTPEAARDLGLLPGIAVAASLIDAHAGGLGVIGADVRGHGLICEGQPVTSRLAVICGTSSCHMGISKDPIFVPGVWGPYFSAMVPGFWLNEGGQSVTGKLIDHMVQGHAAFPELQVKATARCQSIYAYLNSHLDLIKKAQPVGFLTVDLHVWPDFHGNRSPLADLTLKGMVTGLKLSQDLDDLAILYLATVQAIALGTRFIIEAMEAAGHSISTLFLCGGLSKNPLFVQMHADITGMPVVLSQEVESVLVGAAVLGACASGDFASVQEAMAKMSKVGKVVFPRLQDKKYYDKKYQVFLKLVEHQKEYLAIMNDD
UniProt P14324: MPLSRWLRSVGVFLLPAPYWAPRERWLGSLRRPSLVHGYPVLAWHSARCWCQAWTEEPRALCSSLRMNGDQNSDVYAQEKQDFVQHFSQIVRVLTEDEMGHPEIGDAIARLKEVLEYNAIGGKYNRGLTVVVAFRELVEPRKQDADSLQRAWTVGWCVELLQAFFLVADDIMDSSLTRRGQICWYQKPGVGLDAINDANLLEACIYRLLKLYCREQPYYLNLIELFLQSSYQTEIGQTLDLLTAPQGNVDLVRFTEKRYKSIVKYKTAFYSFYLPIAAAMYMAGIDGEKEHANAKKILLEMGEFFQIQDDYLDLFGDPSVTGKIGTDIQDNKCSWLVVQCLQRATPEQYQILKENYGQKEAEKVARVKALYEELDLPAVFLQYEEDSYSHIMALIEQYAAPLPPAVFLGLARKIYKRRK
UniProt Q9NSD9: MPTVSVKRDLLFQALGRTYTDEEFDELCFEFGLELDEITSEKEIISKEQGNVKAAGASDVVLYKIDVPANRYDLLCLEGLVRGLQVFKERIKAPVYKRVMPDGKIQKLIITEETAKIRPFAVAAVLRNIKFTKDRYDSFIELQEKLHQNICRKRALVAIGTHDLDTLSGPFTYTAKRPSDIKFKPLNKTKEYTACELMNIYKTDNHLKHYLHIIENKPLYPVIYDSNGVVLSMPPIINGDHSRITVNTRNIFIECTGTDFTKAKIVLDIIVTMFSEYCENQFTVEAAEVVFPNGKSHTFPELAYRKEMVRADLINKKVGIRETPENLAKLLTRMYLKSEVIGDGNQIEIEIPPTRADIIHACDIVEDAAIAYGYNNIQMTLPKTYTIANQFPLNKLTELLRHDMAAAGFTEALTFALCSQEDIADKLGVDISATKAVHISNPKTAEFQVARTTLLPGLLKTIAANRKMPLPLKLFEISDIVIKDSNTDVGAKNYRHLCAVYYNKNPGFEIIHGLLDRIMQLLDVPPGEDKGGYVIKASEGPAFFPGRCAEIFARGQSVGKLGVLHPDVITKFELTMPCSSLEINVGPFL
UniProt Q14192: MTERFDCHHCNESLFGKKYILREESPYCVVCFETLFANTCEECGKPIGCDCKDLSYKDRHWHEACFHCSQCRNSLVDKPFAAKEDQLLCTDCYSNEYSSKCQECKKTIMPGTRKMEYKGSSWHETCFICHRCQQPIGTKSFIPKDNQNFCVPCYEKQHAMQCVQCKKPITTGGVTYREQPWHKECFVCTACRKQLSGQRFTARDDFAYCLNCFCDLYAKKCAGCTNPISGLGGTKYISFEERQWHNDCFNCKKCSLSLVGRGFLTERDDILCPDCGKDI
UniProt P62942, whole entry, looked up: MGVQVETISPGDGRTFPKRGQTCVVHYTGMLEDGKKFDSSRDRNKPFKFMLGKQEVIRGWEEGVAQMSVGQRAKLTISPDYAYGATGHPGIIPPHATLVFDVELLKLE
UniProt Q8NB91: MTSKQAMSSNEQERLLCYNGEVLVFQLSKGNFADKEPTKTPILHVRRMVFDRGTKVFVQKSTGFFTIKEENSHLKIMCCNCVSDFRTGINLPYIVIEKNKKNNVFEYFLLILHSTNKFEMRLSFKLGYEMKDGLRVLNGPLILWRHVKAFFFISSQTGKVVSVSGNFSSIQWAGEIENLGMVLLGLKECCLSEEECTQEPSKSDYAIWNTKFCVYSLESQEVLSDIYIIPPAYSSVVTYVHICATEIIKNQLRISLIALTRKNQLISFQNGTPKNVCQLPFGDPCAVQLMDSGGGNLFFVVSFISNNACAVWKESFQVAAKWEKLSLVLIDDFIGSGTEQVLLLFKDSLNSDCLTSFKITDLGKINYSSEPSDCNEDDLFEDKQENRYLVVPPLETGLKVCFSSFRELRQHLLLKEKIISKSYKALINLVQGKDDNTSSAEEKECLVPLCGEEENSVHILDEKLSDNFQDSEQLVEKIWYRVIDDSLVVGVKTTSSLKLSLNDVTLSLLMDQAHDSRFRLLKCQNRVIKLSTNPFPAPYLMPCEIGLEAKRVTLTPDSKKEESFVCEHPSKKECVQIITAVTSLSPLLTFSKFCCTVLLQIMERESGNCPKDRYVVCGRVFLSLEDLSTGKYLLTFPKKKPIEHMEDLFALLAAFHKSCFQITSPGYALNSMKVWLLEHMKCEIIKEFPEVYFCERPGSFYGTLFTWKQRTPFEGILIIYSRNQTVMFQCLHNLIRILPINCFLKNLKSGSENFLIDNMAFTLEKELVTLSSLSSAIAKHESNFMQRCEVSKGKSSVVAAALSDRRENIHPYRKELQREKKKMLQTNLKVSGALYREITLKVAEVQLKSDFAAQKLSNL
UniProt Q96CP2: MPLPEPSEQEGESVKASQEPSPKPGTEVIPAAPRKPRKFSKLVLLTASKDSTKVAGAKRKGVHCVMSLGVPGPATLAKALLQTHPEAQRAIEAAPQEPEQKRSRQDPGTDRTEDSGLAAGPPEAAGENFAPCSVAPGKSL

Experiments:
Assay in all cases: log2 fold change, soluble protein after heating vs DMSO (PISA); higher = thermal stabilisation; K562 lysate, 10 uM; active = over 0.2 and 3.5 SD of the protein, either way, in both replicates (recomputed)
[1] = compound: CS(=O)(=O)CCNCc1ccc(-c2ccc3ncnc(Nc4ccc(OCc5cccc(F)c5)c(Cl)c4)c3c2)o1 [lapatinib]
Procedure, shortened: (§1)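 Pellets of K562 cells were dounce-homogenised in PBS pH 7.4 with 1 mM MgCl2, and the crude extract was held at 1 mg/mL protein for a 30 min treatment with 10 μM compound. Aliquots were heated for 3 min over 48°C-58°C and pooled before NP-40 was added to 0.5% at 4°C. The supernatant from 21,000xg for 90 min was quantified by TMTpro 16plex LC-MS/MS with channel sums equalised. Values are reported from duplicates as log-two fold change in thermal stability relative to solvent controls.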

[2] = compound: CS(=O)(=O)N1CCN(Cc2cc3nc(-c4cccc5[nH]ncc45)nc(N4CCOCC4)c3s2)CC1 [pictilisib]
Procedure, shortened: as §1

[3] = compound: C[C@@H](Oc1cc(-c2cnn(C3CCNCC3)c2)cnc1N)c1c(Cl)ccc(F)c1Cl [crizotinib]
Procedure, shortened: as §1

[4] = compound: C[C@H](C1=CC=C(C=C1)C(=O)NC2=C3C=CNC3=NC=C2)N
Procedure, shortened: as §1

[5] = compound: C[C@H](Nc1ncnc2nc[nH]c12)c1cc2cccc(Cl)c2c(=O)n1-c1ccccc1 [duvelisib]
Procedure, shortened: as §1

[6] = compound: Cc1cc(Nc2cc(CN3CCOCC3)c3nc(C)c(Cc4ccc(Cl)cc4F)n3n2)n[nH]1 [gandotinib]
Procedure, shortened: as §1

[7] = compound: Cc1cc(Nc2cc(N3CCN(C)CC3)nc(Sc3ccc(NC(=O)C4CC4)cc3)n2)n[nH]1 [tozasertib]
Procedure, shortened: as §1

[8] = compound: Cc1ccc(-n2nc(C(C)(C)C)cc2NC(=O)Nc2ccc(OCCN3CCOCC3)c3ccccc23)cc1 [doramapimod]
Procedure, shortened: as §1

[9] = compound: Cc1ccc(NC(=O)c2ccc(CN3CC[C@H](N(C)C)C3)c(C(F)(F)F)c2)cc1Nc1nccc(-c2cncnc2)n1 [bafetinib]
Procedure, shortened: as §1

[10] = compound: Cc1cccc(CC(=O)N2CCc3c2ccc(-c2cn(C)c4ncnc(N)c24)c3F)n1
Procedure, shortened: as §1

[11] = compound: Cc1cn(-c2cc(NC(=O)c3ccc(C)c(Nc4nccc(-c5cccnc5)n4)c3)cc(C(F)(F)F)c2)cn1 [nilotinib]
Procedure, shortened: as §1

[12] = compound: Cc1nc(Nc2n[nH]c3c2CN(C(=O)N[C@H](CN(C)C)c2ccccc2)C3(C)C)c2sccc2n1
Procedure, shortened: as §1

[13] = compound: Cc1nc(Nc2ncc(C(=O)Nc3c(C)cccc3Cl)s2)cc(N2CCN(CCO)CC2)n1 [dasatinib]
Procedure, shortened: as §1

[14] = compound: Cc1ncc(-c2ccnc(Nc3ccc(S(C)(=O)=O)cc3)n2)n1C(C)C
Procedure, shortened: as §1

[15] = compound: Cn1cc(-c2ccc3c(c2)CCN3C(=O)Cc2cccc(C(F)(F)F)c2)c2c(N)ncnc21
Procedure, shortened: as §1

[16] = compound: Cn1cc(CNCC2CCN(c3ncc(C(=O)NO)cn3)CC2)c2ccccc21 [quisinostat]
Procedure, shortened: as §1

[17] = compound: Cn1cncc1[C@@](N)(c1ccc(Cl)cc1)c1ccc2c(c1)c(-c1cccc(Cl)c1)cc(=O)n2C [tipifarnib]
Procedure, shortened: as §1

[18] = compound: NC(=O)Nc1cc(-c2cccc(F)c2)sc1C(=O)N[C@H]1CCCNC1
Procedure, shortened: as §1

[19] = compound: NC(=O)c1cnc(N[C@@H]2CCCC[C@@H]2N)nc1Nc1cccc(-n2nccn2)c1
Procedure, shortened: as §1

[20] = compound: NC1(c2ccc(-c3nc4ccn5c(=O)[nH]nc5c4cc3-c3ccccc3)cc2)CCC1
Procedure, shortened: as §1

Measured: log2 fold change

FNTA (UniProt P49354)
inactive: [1] 0 | [2] 0.016 | [3] -0.032 | [4] 0.038 | [5] 0.015 | [6] -0.012 | [7] -0.024 | [8] -0.004 | [9] -0.011 | [10] 0 | [11] -0.012 | [12] -0.01 | [13] -0.021 | [14] -0.036 | [15] 0.004 | [16] 0.003 | [17] 0.058 | [18] 0.017 | [19] -0.032 | [20] 0.014

FBXO9 (UniProt Q9UK97)
inactive: [1] -0.334 | [2] -0.107 | [3] -0.023 | [4] 0.08 | [5] -0.012 | [6] -0.141 | [7] 0.041 | [8] 0.044 | [9] 0 | [10] -0.104 | [11] -0.076 | [12] 0.003 | [13] 0.059 | [14] 0.02 | [15] 0.021 | [16] -0.045 | [17] -0.092 | [18] 0.177 | [19] 0.127 | [20] 0.127

FCHO2 (UniProt Q0JRZ9)
inactive: [1] -0.009 | [2] -0.039 | [3] -0.017 | [4] 0.029 | [5] 0.018 | [6] -0.055 | [7] -0.004 | [8] 0.059 | [9] 0.037 | [10] -0.006 | [11] -0.029 | [12] -0.022 | [13] 0.074 | [14] 0.03 | [15] -0.041 | [16] -0.017 | [17] -0.024 | [18] 0.001 | [19] -0.006 | [20] 0.033

FNIP1 isoform 3 (UniProt Q8TF40)
inactive: [1] 0.007 | [2] -0.122 | [3] -0.052 | [4] -0.006 | [5] -0.018 | [6] -0.047 | [7] -0.027 | [8] 0.027 | [9] 0.002 | [10] 0.06 | [11] -0.021 | [12] -0.022 | [13] 0.009 | [14] -0.082 | [15] -0.063 | [16] 0.024 | [17] 0.007 | [18] 0.02 | [19] -0.021 | [20] 0.028

FBXO38 (UniProt Q6PIJ6)
inactive: [1] 0.039 | [2] -0.052 | [3] 0.038 | [4] 0.018 | [5] 0.01 | [6] -0.037 | [7] 0.119 | [8] 0.05 | [9] -0.316 | [10] -0.016 | [11] 0.157 | [12] -0.203 | [13] -0.03 | [14] -0.125 | [15] -0.069 | [16] -0.028 | [17] -0.071 | [18] 0.026 | [19] -0.031 | [20] 0.012

FGFR1OP2 (UniProt Q9NVK5)
inactive: [1] 0.011 | [2] -0.022 | [3] 0.013 | [4] -0.019 | [5] -0.003 | [6] 0.021 | [7] -0.039 | [8] 0.04 | [9] -0.052 | [10] 0.002 | [11] 0.047 | [12] 0.005 | [13] 0.105 | [14] 0.022 | [15] 0.012 | [16] 0.023 | [17] -0.155 | [18] 0.028 | [19] 0.006 | [20] 0.072

FGGY isoform 3 (UniProt Q96C11)
inactive: [1] -0.008 | [2] 0.191 | [3] -0.005 | [4] 0.249 | [5] -0.035 | [6] -0.064 | [7] 0.119 | [8] 0.046 | [9] -0.006 | [10] -0.139 | [11] 0.199 | [12] -0.218 | [13] -0.029 | [14] -0.041 | [15] -0.054 | [16] -0.057 | [17] 0.056 | [18] 0.018 | [19] 0.083 | [20] -0.1

Random excerpt: 2 records from the list
FBXO9 (UniProt Q9UK97)
inactive: [1] -0.334 | [2] -0.107 | [3] -0.023 | [4] 0.08 | [5] -0.012 | [6] -0.141 | [7] 0.041 | [8] 0.044 | [9] 0 | [10] -0.104 | [11] -0.076 | [12] 0.003 | [13] 0.059 | [14] 0.02 | [15] 0.021 | [16] -0.045 | [17] -0.092 | [18] 0.177 | [19] 0.127 | [20] 0.127

FGFR1OP2 (UniProt Q9NVK5)
inactive: [1] 0.011 | [2] -0.022 | [3] 0.013 | [4] -0.019 | [5] -0.003 | [6] 0.021 | [7] -0.039 | [8] 0.04 | [9] -0.052 | [10] 0.002 | [11] 0.047 | [12] 0.005 | [13] 0.105 | [14] 0.022 | [15] 0.012 | [16] 0.023 | [17] -0.155 | [18] 0.028 | [19] 0.006 | [20] 0.072

(continued)

FDPS (UniProt P14324)
inactive: [1] -0.015 | [2] 0.008 | [3] -0.085 | [4] -0.034 | [5] 0.008 | [6] -0.023 | [7] 0 | [8] -0.021 | [9] -0.035 | [10] 0.059 | [11] 0.044 | [12] 0.1 | [13] -0.044 | [14] 0.001 | [15] 0.023 | [16] -0.07 | [17] 0 | [18] 0.033 | [19] 0.003 | [20] -0.037

FARSB (UniProt Q9NSD9)
inactive: [1] 0.003 | [2] -0.014 | [3] -0.033 | [4] 0.007 | [5] 0.021 | [6] -0.053 | [7] -0.014 | [8] 0.033 | [9] -0.005 | [10] -0.001 | [11] -0.019 | [12] -0.005 | [13] -0.019 | [14] 0.006 | [15] 0.032 | [16] -0.001 | [17] 0.02 | [18] 0.027 | [19] 0.002 | [20] -0.014

FANCI (UniProt Q9NVI1)
inactive: [1] -0.015 | [2] -0.034 | [3] -0.09 | [4] 0.06 | [5] 0.001 | [6] -0.199 | [7] 0.002 | [8] -0.003 | [9] -0.032 | [10] -0.011 | [11] -0.022 | [12] -0.011 | [13] -0.069 | [14] 0.028 | [15] 0.049 | [16] -0.065 | [17] 0.01 | [18] 0.061 | [19] 0.027 | [20] -0.027

FHL2 (UniProt Q14192)
inactive: [1] 0.023 | [2] 0.005 | [3] 0.004 | [4] -0.038 | [5] 0.024 | [6] 0.033 | [7] -0.021 | [8] 0.105 | [9] -0.038 | [10] 0.029 | [11] 0.016 | [12] 0.054 | [13] -0.032 | [14] 0.039 | [15] 0.019 | [16] 0.012 | [17] -0.018 | [18] -0.067 | [19] -0.037 | [20] 0.006

FKBP1A (UniProt P62942)
inactive: [1] -0.011 | [2] -0.031 | [3] 0.005 | [5] 0.074 | [6] 0.266 | [7] -0.037 | [8] -0.04 | [9] -0.111 | [10] 0.15 | [11] 0.023 | [12] 0.002 | [13] -0.005 | [14] 0.081 | [15] -0.103 | [16] 0.012 | [17] 0.038 | [18] -0.005 | [19] 0.002 | [20] -0.039
active: [4] -0.814

FANCB (UniProt Q8NB91)
inactive: [1] -0.04 | [2] -0.015 | [3] -0.148 | [4] -0.099 | [5] -0.046 | [6] 0.035 | [7] -0.009 | [8] 0.111 | [9] -0.008 | [10] 0.085 | [11] 0.016 | [12] -0.008 | [13] -0.082 | [14] -0.015 | [15] 0.001 | [16] -0.078 | [17] -0.077 | [18] -0.132 | [19] -0.009 | [20] 0.049

FGF2 (UniProt P09038)
inactive: [1] -0.011 | [2] 0.018 | [3] -0.015 | [4] -0.067 | [5] 0.019 | [6] 0.035 | [7] 0.1 | [8] -0.031 | [9] 0.029 | [10] -0.003 | [11] 0.157 | [12] -0.031 | [13] 0.145 | [14] -0.046 | [15] 0 | [16] 0.018 | [17] 0.147 | [18] 0.022 | [19] 0.025 | [20] 0.041

FCHSD1 (UniProt Q86WN1)
inactive: [1] -0.015 | [2] -0.011 | [3] 0.011 | [4] -0.069 | [5] -0.007 | [6] 0.105 | [7] 0.046 | [8] 0.073 | [9] -0.064 | [10] 0.019 | [11] 0.013 | [12] 0.048 | [13] 0.111 | [14] 0.009 | [15] 0.009 | [16] 0.089 | [17] -0.041 | [18] 0.027 | [19] -0.02 | [20] -0.009

FLYWCH2 (UniProt Q96CP2)
inactive: [1] 0.015 | [2] -0.057 | [3] 0.029 | [4] -0.037 | [5] 0.014 | [6] 0.05 | [7] -0.018 | [8] -0.036 | [9] 0.038 | [10] -0.038 | [11] 0.044 | [12] -0.012 | [13] 0.032 | [14] -0.033 | [15] -0.007 | [16] -0.017 | [17] -0.033 | [18] -0.024 | [19] -0.016 | [20] 0.043
